Most values lie at the floor of the assay. Slopes are relative: functional sequences can read slightly below zero.
System: Saccharomyces cerevisiae PS128 hsf1 delta, HSF1(1-493) fusion
Experiment: growth estimate (transactivation domain function in HSF1 fusion, heat-shock survival) (a.u. (slope of normalised read count over time)); higher = stronger growth at 37°C, i.e. more transactivation activity
Conditions: library: random library

Row | Substance | growth estimate
1 | LFMVANIYVTSPAVLPNALD | < -0.25
2 | INAAVG | < -0.25
3 | NLNNT | < -0.25
4 | IPH | < -0.25
5 | TIRLS | < -0.25
6 | VVNH | < -0.25
7 | LQCSNFSVVQQS | < -0.25
8 | LQAIQASIRYCYWDRGGTTG | < -0.25
9 | GRSF | < -0.25
10 | AMRGWSK | < -0.252
11 | CRQFRANHREKRLLQKLRHD | < -0.25
12 | ELRTQE | < -0.25
13 | DDWLWVHQGAGGRDNIYSYH | < -0.25
14 | STYSALALALLGPN | < -0.25
15 | TYEPVLDIGPRIV | < -0.25
16 | KYPLFVDCLSFVQWSVE | -0.233
17 | CLSARIHVGLSVLKTWVNAA | < -0.25
18 | ISTHPVDCGHALYHGARRS | < -0.25
19 | THDG | < -0.25
20 | ALYELKGLQIVHMIRRHVST | < -0.25
21 | DNG | < -0.25
22 | MLSRYL | < -0.25
23 | THLDF | < -0.25

Row | Substance | growth estimate
24 | FHTCPLAE | < -0.25
25 | ISVTGAMLSNGQRRTNPKLM | < -0.25
26 | EGIFGKSRAERTG | < -0.25
27 | AGLGHLRGNPYMVEEVGSPR | < -0.25
28 | GKITSPRAVSVPQFIYKSSP | < -0.25
29 | RKGCISDVVDL | < -0.25
30 | WLKE | < -0.25
31 | GPEESIVLFRT | < -0.25
32 | YRSQWGRRCRAIPSFPMATV | < -0.25
33 | PDNPVMPQVLKGFHLFIVVI | < -0.25
34 | LPS | < -0.25
35 | RLHNVGIAVHIRDTNRASVL | < -0.25
36 | RMRWGKGTSSSREAGNYGRT | -0.243
37 | KTL | < -0.25
38 | DVIK | < -0.25
39 | SGGFRS | < -0.25
40 | SHICMGRAARQT | < -0.25
41 | GPHCLTFGRRPLGHPSLESD | < -0.25
42 | VRIALR | -0.239
43 | GKPPPNGSRDPAPEIVNARA | < -0.25
44 | MEGYGCKRAM | -0.217
45 | RCSRTRNFGPALER | < -0.25
46 | PRRTRRW | < -0.25

Row | Substance | growth estimate
47 | PLPSLIVERCAHESSAVRGL | < -0.25
48 | GPPGLRRLLLYDPTWRTHPH | < -0.25
49 | PLGLRQPIPNVFWAMFSPIC | < -0.25
50 | DIALGVCQILKRAREYDSAR | < -0.25
51 | RSFQVINVSNRYAGAPETAG | < -0.25
52 | GSLS | < -0.25
53 | GSMRAFPGTRLWRGSQLGRA | < -0.25
54 | WIYQVCLITGDTPACARIPQ | < -0.25
55 | RGPRVV | < -0.25
56 | LRTGRLFTVWSRTTTIHEEL | < -0.25
57 | WKTRWAQCVRPARLLADPGW | < -0.25
58 | TPLLLFRVKA | < -0.25
59 | TNE | < -0.25
60 | GRSPGTLLTAGGRITTVSFN | < -0.25
61 | RVGNGGIRDALIISWYMAYK | < -0.25
62 | SLCWGHHRRSIS | < -0.25
63 | PTVTS | < -0.25
64 | GGTGVWAAFRSEDASNVGFG | < -0.25
65 | RLNSCHFPGGARNPTNRNRH | < -0.25
66 | GVI | < -0.25
67 | CTVFPR | < -0.25
68 | QPQFAKVSYLVT | < -0.25
69 | VRPLPDIRPGTRVTQLRSGQ | < -0.25

Row | Substance | growth estimate
70 | IFKCGLVVLGRCLVLLGDVC | < -0.25
71 | SSGRTQEVPRIPVKSRRERN | < -0.25
72 | VQNVGGGGAHLFLVAYSLRR | -0.246
73 | PSARVRQSLERVPSIGSDRF | < -0.25
74 | VTPERCLRRCGSLKFGVSGH | < -0.25
75 | VALAQLIIKSQWSYRSVRPH | < -0.25
76 | RCSHHGGASEST | < -0.25
77 | APPGNVRRRIGWVQHERGPL | < -0.25
78 | PCASL | < -0.25
79 | WLKLM | < -0.25
80 | KGEG | < -0.25
81 | WVCG | < -0.25
82 | YWV | 0.0262
83 | CEFKRVWPQGMCPCLPPVRS | -0.244
84 | RELNEFYVERQSLALRWRCS | < -0.25
85 | PQSGNRTC | < -0.25
86 | TSLGYSIICGCDNGST | < -0.25
87 | SRWLDIALTLAQLETFESEF | -0.043
88 | QGKRARMLSSTEHPARMAYI | < -0.25
89 | DAHGLPR | < -0.25
90 | AEGADYFGRR | < -0.25
91 | GNRL | < -0.25
92 | IRSKIPG | < -0.25

Row | Substance | growth estimate
93 | LAGRS | 0.249
94 | FNVKLAENFRR | < -0.25
95 | TVRWSGLHILTALLVSCHFT | < -0.25
96 | CVYLPFGATIMPSWKRGARG | < -0.25
97 | GSWSSSRGVLGPDELGACLP | < -0.25
98 | FTTRASASAACTCCIRQRRR | < -0.25
99 | HLRSLSAVPTLYLHCEDILV | < -0.25
100 | NLYDSPGNMKGKFVSSSASS | < -0.25
101 | PDAS | < -0.25
102 | GTQRAWRKSLSIRLD | < -0.25
103 | VCASMG | < -0.25
104 | RSMVRWRIGLRG | < -0.25
105 | SGIHEIPVRARNSLHRMQYS | < -0.25
106 | GILYVLG | < -0.25
107 | AKVVLL | < -0.25
108 | SALHHICIP | < -0.25
109 | ANKAIMSFPGFLSARWSI | < -0.25
110 | GGLKAFRRGFVTARFLQARQ | < -0.25
111 | APNIVKSESGRMRFKSGYTI | < -0.25
112 | RPMSGETDQA | < -0.25
113 | SVVLTRQLRKYAVDDQTVIT | < -0.25
114 | PMVIAPGPMHISRTSVKALP | < -0.25
115 | LAP | < -0.25

Rewritten comma-delimited: entries from further up.
Row,Substance,growth estimate
106,GILYVLG,< -0.25
107,AKVVLL,< -0.25
108,SALHHICIP,< -0.25

Next part:

Row | Substance | growth estimate
116 | IPERASREQMFWAADVGRLN | -0.245
117 | YLTR | < -0.25
118 | SNIRLSGAPSGNRYSYIVAP | < -0.25
119 | AASGY | < -0.25
120 | RCAQWKPSHIPTFLPMMHPG | < -0.25
121 | FRVREVRARVVVRAIGAAQS | < -0.25
122 | HFESRAVL | < -0.25
123 | WVLPNRSMSPFWRGARISLA | < -0.25
124 | FHTRSAGVQRRLRRITDRRE | < -0.25
125 | CNGPIDGPWQESR | < -0.25
126 | EAYRAAGWPGSEGHEGRRNP | < -0.25
127 | YADAPNWF | < -0.25
128 | ALRKTVAHIGRYEDPHIRQF | < -0.25
129 | PRNGARLRPNVSRAPLYTRS | < -0.25
130 | VRRGAAANSLRVIPAILSWH | < -0.25
131 | RIRGKR | < -0.25
132 | GVSGRT | < -0.25
133 | IIDSNAVVSGT | < -0.25
134 | CSSERLGVQRGYIYPLLVVL | < -0.25
135 | VMGWPLLIKCEEWASRSVTF | -0.243
136 | RKTLHY | < -0.25
137 | EEGTCAVRGLNRTFPCMRVA | < -0.25
138 | KHLLPSRPICSPSHLL | -0.246

Row | Substance | growth estimate
139 | KRVSQSATLCHRSESSQSLT | < -0.25
140 | ECKLRGLDCAPGFKQSLRVF | < -0.25
141 | GLLVSIRGRIPVGSLSPVGT | < -0.25
142 | VALKV | < -0.25
143 | VLSASLNCYTAPSRGRSTFA | < -0.25
144 | GWKEAHAPGIEFCKRKRVPA | < -0.25
145 | PPR | -0.246
146 | GITLSVRFWEGWRTSPSGTG | < -0.25
147 | TTMSREPVTSRRPYTGTQHP | < -0.25
148 | APPQLFHWGQSNIESANCRH | < -0.25
149 | VSSRDGSFAHKFKCAIDASV | < -0.25
150 | QQVATRYLKLADSVVHLCVR | < -0.25
151 | SSGWNGREIRSSFQRVLDAC | -0.112
152 | EGGVTQTLVMEAEDHGTHSL | < -0.25
153 | FEIIGAYSLTAKAWHAVELG | < -0.25
154 | MNMD | < -0.25
155 | RTSCF | < -0.25
156 | PHPPLVPSKALR | < -0.25
157 | RLASEPYIRNGISAKRTGCA | < -0.25
158 | VWPLYFWKQLQGRTAEEGNC | < -0.25
159 | NHRRRFKLGGATGELCSERA | < -0.25
160 | PGCWLSSHDVSMRCHLRLTA | < -0.25

Some of the entries above, reformatted:
KRVSQSATLCHRSESSQSLT
  growth estimate = < -0.25
GLLVSIRGRIPVGSLSPVGT
  growth estimate = < -0.25
VALKV
  growth estimate = < -0.25
APPQLFHWGQSNIESANCRH
  growth estimate = < -0.25

From no. 146 to 147, copied from above:
Row | Substance | growth estimate
146 | GITLSVRFWEGWRTSPSGTG | < -0.25
147 | TTMSREPVTSRRPYTGTQHP | < -0.25
